PubChem BioAssay AID504808, Drosophila RNAi Screening Center, 2011

Screen: 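Chromatin factors that keep E2F targets switched off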 (primary screen)
System: Drosophila S2 cells
Knock-down reagent: long dsRNA against Drosophila genes
Read-out: 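Firefly luciferase driven by E2F sites, normalised to Renilla luciferase on the same minimal promoter, measured by plate reader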
Direction: E2F firefly: higher = more E2F reporter activity; Renilla normaliser: higher = more normaliser reporter signal
Call rule: 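Called active if the normalised E2F reporter went up by over 50%; the cutoff is arbitrary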
In all, the deposit lists about 21,000 reagents; shown is a random part of those that have a named target and a result. Of all reagents, 18 (0.084%) were called active. 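Raw counts without plate normalisation, one of two replicates; the ratio scores behind the calls were not deposited.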 Reagents against one gene are numbered here. Not given: the amount of reagent, the time to read-out.

CG13113
- E2F firefly, rep 1: 1.70e5
- Renilla normaliser, rep 1: 6081
- activity call: inactive

CG33259
- E2F firefly, rep 1: 1.46e5
- Renilla normaliser, rep 1: 7513
- activity call: inactive

CG7685
- E2F firefly, rep 1: 1.24e5
- Renilla normaliser, rep 1: 7483
- activity call: inactive

CG34370 #1
- E2F firefly, rep 1: 1.28e5
- Renilla normaliser, rep 1: 5805
- activity call: inactive

CG34370 #2
- E2F firefly, rep 1: 1.10e5
- Renilla normaliser, rep 1: 4388
- activity call: inactive

CG34370 #3
- E2F firefly, rep 1: 93528
- Renilla normaliser, rep 1: 4005
- activity call: inactive

CG34370 #4
- E2F firefly, rep 1: 90989
- Renilla normaliser, rep 1: 4221
- activity call: inactive

Next part (2 carried over from the part before).
CG34370 #3
- E2F firefly, rep 1: 93528
- Renilla normaliser, rep 1: 4005
- activity call: inactive

CG34370 #4
- E2F firefly, rep 1: 90989
- Renilla normaliser, rep 1: 4221
- activity call: inactive

CG31637 #1
- E2F firefly, rep 1: 1.00e5
- Renilla normaliser, rep 1: 3643
- activity call: inactive

CG31637 #2
- E2F firefly, rep 1: 1.66e5
- Renilla normaliser, rep 1: 4938
- activity call: inactive

Ubc2 #1
- E2F firefly, rep 1: 1.42e5
- Renilla normaliser, rep 1: 6486
- activity call: inactive

Ubc2 #2
- E2F firefly, rep 1: 1.47e5
- Renilla normaliser, rep 1: 5075
- activity call: inactive

corn
- E2F firefly, rep 1: 69041
- Renilla normaliser, rep 1: 3096
- activity call: inactive
